Source: PubChem BioAssay AID504467 (National Center for Advancing Translational Sciences (NCATS), 2011)
Screen size: about 330,000 compounds; about 7,700 (2.3%) were called active. Inconclusive means that the source gave no clear call. Such entries were picked first, then a sample of the others. Calls follow the shape of the dose curve; as a rule, active = well fitted inhibition curve with a large enough effect; inconclusive = small, poorly fitted or top-dose-only effect, or effect the other way; inactive = flat fitted curve, though single readings scatter. Where the call is inconclusive, the potency comes from a doubtful curve fit.

Experiment: qHTS screen for small molecules that inhibit ELG1-dependent DNA repair in human embryonic kidney (HEK293T) cells expressing luciferase-tagged ELG1; also: nearly all actives have a fitted effect of over 55% in size
Settings: HEK293T ELG1-luciferase reporter, luminescence, 16 h, DNA damage induced by 5-fluorouridine; activity change, negative = inhibition: at 46.1 µM (top of the series)
Method in brief: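 HEK293T cells expressing luciferase-tagged ELG1 (2,000/well) received 5-Fluorouridine plus compound or DMSO for 16 hr at 37 °C. Luciferase was read by ONE-Glo luminescence after 30 min at room temperature.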
% is scaled to controls: 0 for no effect and ±100 for the full control effect; potency is read from the fitted curve at half-maximal effect.

Row | Compound | Potency | activity change, negative = inhibition
1 | COCCN(Cc1ccccc1)C(=O)c1cccc(S(=O)(=O)N2CCN(c3ccc(F)cc3)CC2)c1 | inconclusive: 2.24 µM [inhibitor, partial curve, poor fit] | 
2 | COCc1[nH]nc2c1C(c1c(F)cccc1Cl)C(C#N)=C(N)O2 (stereo unspecified) |  | inactive: -1.72%
3 | CC1(C)Cc2c(sc3nc(-c4cc5ccccc5o4)n(N)c(=O)c23)CO1 | inconclusive: 2.91 µM [activator, partial curve, poor fit] | 
4 | CCCCC(=O)Nc1sc2c(c1C(N)=O)CCC2 | inconclusive: 20.6 µM [activator, partial curve] | 
5 | COC(=O)c1c(-c2cccnc2)csc1NC(=O)c1cc(C)on1 | inconclusive: 3.66 µM [activator, partial curve] | 
6 | CCn1c(O)c(N=NC(=O)c2cccs2)c2ccccc21 | inconclusive: 16.4 µM [inhibitor, single point] | 
7 | O=C(c1ccc2nc(-c3ccco3)c(-c3ccco3)nc2c1)N1CCN(c2ncccn2)CC1 | inconclusive: 11.2 µM [inhibitor, single point] | 
8 | Nc1c(S(=O)(=O)c2ccccc2)c2nc3ccccc3nc2n1Cc1ccco1 |  | inactive: -3.4%
9 | COCCN1CCN(C(=O)c2ccc3oc(CCc4ccccc4)nc3c2)CC1 | inconclusive: 18.3 µM [activator, partial curve] | 
10 | CC1CCCCC1NC(=O)CO/N=C/c1ccc(OC(F)F)cc1 (stereo unspecified) | inconclusive: 23.1 µM [inhibitor, partial curve, poor fit] | 
11 | COc1ccc(CNS(=O)(=O)c2csc(C(N)=O)c2)cc1OC | inconclusive: 29.1 µM [activator, partial curve, poor fit] | 
12 | O=C(OCC(=O)N1CCCc2ccccc21)c1ccccc1NCCO |  | inactive: -1.98%
13 | Cc1sc(NC(=O)c2ccco2)c(CN2CCN(c3ccccc3)CC2)c1C | inconclusive: 29.1 µM [inhibitor, partial curve, poor fit] | 
14 | c1ccc(-c2csc(-n3cccn3)n2)cc1 | inconclusive: 18.3 µM [activator, single point] | 
15 | O=C(O)C1CCCCC1C(=O)NCc1ccccn1 (stereo unspecified) |  | inactive: -9.3%
16 | CCC(C)c1ccccc1NC(=O)COC(=O)c1ccc2[nH]c3c(c2c1)CCCC3 (stereo unspecified) | active: 20.6 µM | 
17 | Cn1ncc(Br)c1NC(=O)c1cc(Cl)cc(Cl)c1 |  | inactive: -2.13%
18 | Cc1c2c(nc3nc4ccccc4n13)CC(C)(C)CC2=O |  | inactive: -0.16%
19 | COc1ccc(NC(=O)c2cc([N+](=O)[O-])ccc2N2CCCCC2)cc1OC | inconclusive: 16.4 µM [inhibitor, partial curve] | 
20 | COc1ccccc1N1CCN(C(=O)c2ccc(NC3=NC4CS(=O)(=O)CC4S3)cc2)CC1 (stereo unspecified) |  | inactive: 7.13%
21 | Clc1ccc(-n2nnnc2-c2cnc3ccc(Cl)cc3c2-c2ccccc2)cc1 | inconclusive: 29.1 µM [inhibitor, single point] | 
22 | Cn1cc(CCNCc2cn[nH]c2-c2ccc(-c3ccccc3)cc2)cn1 | inconclusive: 11.6 µM [activator, partial curve] | 
23 | COC(=O)c1cnn(-c2ccccc2)c1C(OC)OC | inconclusive: 29.1 µM [inhibitor, single point] | 

Row | Compound | Potency | activity change, negative = inhibition
24 | O=C(CS(=O)(=O)c1ccccc1)N1CCCCC1 | inconclusive: 25.9 µM [activator, single point] | 
25 | Cc1cc(C(=O)COC(=O)c2cccnc2Cl)c(C)n1C | inconclusive: 0.73 µM [activator, partial curve, poor fit] | 
26 | N#CC1=C(SCC(=O)Nc2nccs2)NC(=O)CC1c1ccccc1 (stereo unspecified) | inconclusive: 7.31 µM [activator, partial curve, poor fit] | 
27 | COc1ccnc(Oc2ccccc2)c1C(=O)N/C=N/OCc1ccccc1 | inconclusive: 32.6 µM [inhibitor, partial curve, poor fit] | 
28 | O=C(Nc1cccc2ccccc12)C12CC3CC(C1)CC(n1cnc([N+](=O)[O-])n1)(C3)C2 |  | inactive: -8.93%
29 | COc1cc(CN2CCCC(C(=O)c3ccc(SC)cc3)C2)cc(Cl)c1O (stereo unspecified) |  | inactive: -21%
30 | CCCC(=O)Nc1ccc(S(=O)(=O)N2CCCC2)cc1 |  | inactive: -4.9%
31 | COc1ccc2c(c1)O[C@H](c1ccc3c(c1)OCO3)[C@@H](OC(=O)N[C@H](C)C1CCCCC1)C2=O | inconclusive: 14.6 µM [inhibitor, partial curve, poor fit] | 
32 | CCOC(=O)c1c(NC(=O)COc2cccc3c2CCN(CC)C3=O)sc2c1CCC2 | inconclusive: 2.59 µM [inhibitor, partial curve, poor fit] | 
33 | CNC(=O)c1cc(Nc2nnc(C)c3ccccc23)ccc1OC | inconclusive: 23.1 µM [activator, single point] | 
34 | CCCc1nnc2c(N(C)S(=O)(=O)c3ccc(C)cc3)nc3ccccc3n12 |  | inactive: 7.05%
35 | COC(=O)c1cccc(NC(=O)C2COc3ccccc3O2)c1 (stereo unspecified) | inconclusive: 14.6 µM [activator, partial curve] | 
36 | O=C(Nc1ccccc1F)c1cc(S(=O)(=O)N2CCOCC2)cs1 |  | inactive: 0.951%
37 | COC(=O)CSc1[nH]c2ccc(F)cc2c1[N+](=O)[O-] |  | inactive: 17.3%
38 | COc1nccnc1NS(=O)(=O)c1ccc(NC(=O)c2ccccc2Br)cc1 |  | inactive: 23.5%
39 | CCCSc1nnc(NC(=O)Cc2ccc(OC)c(OC)c2)s1 | inconclusive: 13 µM [inhibitor, partial curve] | 
40 | CC(=O)c1cn(CCOc2ccccc2C)c2ccccc12 | inconclusive: 32.6 µM [activator, single point] | 
41 | CCc1ccccc1NC(=S)/N=C(\N)Nc1nc(C)c2cc(C)ccc2n1 | active: 20.6 µM | 
42 | CCOC(=O)c1c(C)[nH]c(N=Nc2ccc(OC)cc2)c1C | inconclusive: 13 µM [activator, partial curve] | 
43 | CCNc1nc(N)c(C(=O)C23CC4CC(CC(C4)C2)C3)s1 |  | inactive: -12.1%
44 | Cc1c(Cl)cccc1NS(=O)(=O)c1cccc2nsnc12 |  | inactive: 15.8%
45 | COc1cccc(/C=C/C(=O)OCC(=O)N2CCN(c3ccccc3)CC2)c1 | inconclusive: 17.8 µM [inhibitor, single point] | 
46 | COc1ccc(S(=O)(=O)N(CCCN2CCCC2=O)Cc2cc3c(C)cc(C)cc3[nH]c2=O)cc1 | inconclusive: 20.6 µM [inhibitor, single point] | 

Single records (already shown).
COc1ccc2c(c1)O[C@H](c1ccc3c(c1)OCO3)[C@@H](OC(=O)N[C@H](C)C1CCCCC1)C2=O is entered as Potency: inconclusive: 14.6 µM [inhibitor, partial curve, poor fit]
CCn1c(O)c(N=NC(=O)c2cccs2)c2ccccc21 is entered as Potency: inconclusive: 16.4 µM [inhibitor, single point]
COc1ccc(CNS(=O)(=O)c2csc(C(N)=O)c2)cc1OC is entered as Potency: inconclusive: 29.1 µM [activator, partial curve, poor fit]
COc1cc(CN2CCCC(C(=O)c3ccc(SC)cc3)C2)cc(Cl)c1O (stereo unspecified) is entered as activity change, negative = inhibition: inactive: -21%
